Reference: patent US20250283871A1, “COMPOSITIONS AND METHODS FOR MODULATING THE INTERACTION BETWEEN SS18-SSX FUSION ONCOPROTEIN AND NUCLEOSOMES” (Dana-Farber Cancer Institute, Inc., priority 2020, published 2025)

B1: MATR3 (protein, UniProt P43243 2-847, looked up)
Matrin-3: SKSFQQSSLSRDSQGHGRDLSAAGIGLLAAATQSLSMPASLGRMNQGTARLASLMNLGMSSSLNQQGAHSALSSASTSSHNLQSIFNIGSRGPLPLSSQHRGDADQASNILASFGLSARDLDELSRYPEDKITPENLPQILLQLKRRRTEEGPTLSYGRDGRSATREPPYRVPRDDWEEKRHFRRDSFDDRGPSLNPVLDYDHGSRSQESGYYDRMDYEDDRLRDGERCRDDSFFGETSHNYHKFDSEYERMGRGPGPLQERSLFEKKRGAPPSSNIEDFHGLLPKGYPHLCSICDLPVHSNKEWSQHINGASHSRRCQLLLEIYPEWNPDNDTGHTMGDPFMLQQSTNPAPGILGPPPPSFHLGGPAVGPRGNLGAGNGNLQGPRHMQKGRVETSRVVHIMDFQRGKNLRYQLLQLVEPFGVISNHLILNKINEAFIEMATTEDAQAAVDYYTTTPALVFGKPVRVHLSQKYKRIKKPEGKPDQKFDQKQELGRVIHLSNLPHSGYSDSAVLKLAEPYGKIKNYILMRMKSQAFIEMETREDAMAMVDHCLKKALWFQGRCVKVDLSEKYKKLVLRIPNRGIDLLKKDKSRKRSYSPDGKESPSDKKSKTDGSQKTESSTEGKEQEEKSGEDGEKDTKDDQTEQEPNMLLESEDELLVDEEEAAALLESGSSVGDETDLANLGDVASDGKKEPSDKAVKKDGSASAAAKKKLKKVDKIEELDQENEAALENGIKNEENTEPGAESSENADDPNKDTSENADGQSDENKDDYTIPDEYRIGPYQPNVPVGIDYVIPKTGFYCKLCSLFYTNEEVAKNTHCSSLPHYQKLKKFLNKLAEERRQKKET
B2: HNRNPUL2 (protein, UniProt Q1KMD3 1-747, looked up)
Heterogeneous nuclear …: MEVKRLKVTELRSELQRRGLDSRGLKVDLAQRLQEALDAEMLEDEAGGGGAGPGGACKAEPRPVAASGGGPGGDEEEDEEEEEEDEEALLEDEDEEPPPAQALGQAAQPPPEPPEAAAMEAAAEPDASEKPAEATAGSGGVNGGEEQGLGKREEDEPEERSGDETPGSEVPGDKAAEEQGDDQDSEKSKPAGSDGERRGVKRQRDEKDEHGRAYYEFREEAYHSRSKSPLPPEEEAKDEEEDQTLVNLDTYTSDLHFQVSKDRYGGQPLFSEKFPTLWSGARSTYGVTKGKVCFEAKVTQNLPMKEGCTEVSLLRVGWSVDFSRPQLGEDEFSYGFDGRGLKAENGQFEEFGQTFGENDVIGCFANFETEEVELSFSKNGEDLGVAFWISKDSLADRALLPHVLCKNCVVELNFGQKEEPFFPPPEEFVFIHAVPVEERVRTAVPPKTIEECEVILMVGLPGSGKTQWALKYAKENPEKRYNVLGAETVLNQMRMKGLEEPEMDPKSRDLLVQQASQCLSKLVQIASRTKRNFILDQCNVYNSGQRRKLLLFKTFSRKVVVVVPNEEDWKKRLELRKEVEGDDVPESIMLEMKANFSLPEKCDYMDEVTYGELEKEEAQPIVTKYKEEARKLLPPSEKRTNRRNNRNKRNRQNRSRGQGYVGGQRRGYDNRAYGQQYWGQPGNRGGYRNFYDRYRGDYDRFYGRDYEYNRYRDYYRQYNRDWQSYYYHHPQDRDRYYRNYYGYQGYR
B3: SRSF2 (protein, UniProt Q01130 2-221, looked up)
Serine/arginine-rich splicing …: SYGRPPPDVEGMTSLKVDNLTYRTSPDTLRRVFEKYGRVGDVYIPRDRYTKESRGFAFVRFHDKRDAEDAMDAMDGAVLDGRELRVQMARYGRPPDSHHSRRGPPPRRYGGGGYGRRSRSPRRRRRSRSRSRSRSRSRSRSRYSRSKSRSRTRSRSRSTSKSRSARRSKSKSSSVSRSRSRSRSRSRSRSPPPVSKRESKSRSRSKSPPKSPEEEGAVSS
B4: MYBBP1A (protein, UniProt Q9BQG0 1-1328, looked up)
Myb-binding protein 1A: MESRDPAQPMSPGEATQSGARPADRYGLLKHSREFLDFFWDIAKPEQETRLAATEKLLEYLRGRPKGSEMKYALKRLITGLGVGRETARPCYSLALAQLLQSFEDLPLCSILQQIQEKYDLHQVKKAMLRPALFANLFGVLALFQSGRLVKDQEALMKSVKLLQALAQYQNHLQEQPRKALVDILSEVSKATLQEILPEVLKADLNIILSSPEQLELFLLAQQKVPSKLKKLVGSVNLFSDENVPRLVNVLKMAASSVKKDRKLPAIALDLLRLALKEDKFPRFWKEVVEQGLLKMQFWPASYLCFRLLGAALPLLTKEQLHLVMQGDVIRHYGEHVCTAKLPKQFKFAPEMDDYVGTFLEGCQDDPERQLAVLVAFSSVTNQGLPVTPTFWRVVRFLSPPALQGYVAWLRAMFLQPDLDSLVDFSTNNQKKAQDSSLHMPERAVFRLRKWIIFRLVSIVDSLHLEMEEALTEQVARFCLFHSFFVTKKPTSQIPETKHPFSFPLENQAREAVSSAFFSLLQTLSTQFKQAPGQTQGGQPWTYHLVQFADLLLNHSHNVTTVTPFTAQQRQAWDRMLQTLKELEAHSAEARAAAFQHLLLLVGIHLLKSPAESCDLLGDIQTCIRKSLGEKPRRSRTKTIDPQEPPWVEVLVEILLALLAQPSHLMRQVARSVFGHICSHLTPRALQLILDVLNPETSEDENDRVVVTDDSDERRLKGAEDKSEEGEDNRSSESEEESEGEESEEEERDGDVDQGFREQLMTVLQAGKALGGEDSENEEELGDEAMMALDQSLASLFAEQKLRIQARRDEKNKLQKEKALRRDFQIRVLDLVEVLVTKQPENALVLELLEPLLSIIRRSLRSSSSKQEQDLLHKTARIFTHHLCRARRYCHDLGERAGALHAQVERLVQQAGRQPDSPTALYHFNASLYLLRVLKGNTAEGCVHETQEKQKAGTDPSHMPTGPQAASCLDLNLVTRVYSTALSSFLTKRNSPLTVPMFLSLFSRHPVLCQSLLPILVQHITGPVRPRHQACLLLQKTLSMREVRSCFEDPEWKQLMGQVLAKVTENLRVLGEAQTKAQHQQALSSLELLNVLFRTCKHEKLTLDLTVLLGVLQGQQQSLQQGAHSTGSSRLHDLYWQAMKTLGVQRPKLEKKDAKEIPSATQSPISKKRKKKGFLPETKKRKKRKSEDGTPAEDGTPAATGGSQPPSMGRKKRNRTKAKVPAQANGTPTTKSPAPGAPTRSPSTPAKSPKLQKKNQKPSQVNGAPGSPTEPAGQKQHQKALPKKGVLGKSPLSALARKKARLSLVIRSPSLLQSGAKKKAQVRKAGKP
B5: NOP2 (protein, UniProt P46087 1-812, looked up)
28S rRNA …: MGRKLDPTKEKRGPGRKARKQKGAETELVRFLPAVSDENSKRLSSRARKRAAKRRLGSVEAPKTNKSPEAKPLPGKLPKGISAGAVQTAGKKGPQSLFNAPRGKKRPAPGSDEEEEEEDSEEDGMVNHGDLWGSEDDADTVDDYGADSNSEDEEEGEALLPIERAARKQKAREAAAGIQWSEEETEDEEEEKEVTPESGPPKVEEADGGLQINVDEEPFVLPPAGEMEQDAQAPDLQRVHKRIQDIVGILRDFGAQREEGRSRSEYLNRLKKDLAIYYSYGDFLLGKLMDLFPLSELVEFLEANEVPRPVTLRTNTLKTRRRDLAQALINRGVNLDPLGKWSKTGLVVYDSSVPIGATPEYLAGHYMLQGASSMLPVMALAPQEHERILDMCCAPGGKTSYMAQLMKNTGVILANDANAERLKSVVGNLHRLGVTNTIISHYDGRQFPKVVGGFDRVLLDAPCSGTGVISKDPAVKTNKDEKDILRCAHLQKELLLSAIDSVNATSKTGGYLVYCTCSITVEENEWVVDYALKKRNVRLVPTGLDFGQEGFTRFRERRFHPSLRSTRRFYPHTHNMDGFFIAKFKKFSNSIPQSQTGNSETATPTNVDLPQVIPKSENSSQPAKKAKGAAKTKQQLQKQQHPKKASFQKLNGISKGADSELSTVPSVTKTQASSSFQDSSQPAGKAEGIREPKVTGKLKQRSPKLQSSKKVAFLRQNAPPKGTDTQTPAVLSPSKTQATLKPKDHHQPLGRAKGVEKQQLPEQPFEKAAFQKQNDTPKGPQPPTVSPIRSSRPPPAKRKKSQSRGNSQLLLS
B6: RBM12B (protein, UniProt Q8IXT5 1-1001, looked up)
RNA-binding protein 12B: MAVVIRLLGLPFIAGPVDIRHFFTGLTIPDGGVHIIGGEIGEAFIIFATDEDARRAISRSGGFIKDSSVELFLSSKAEMQKTIEMKRTDRVGRGRPGSGTSGVDSLSNFIESVKEEASNSGYGSSINQDAGFHTNGTGHGNLRPRKTRPLKAENPYLFLRGLPYLVNEDDVRVFFSGLCVDGVIFLKHHDGRNNGDAIVKFASCVDASGGLKCHRSFMGSRFIEVMQGSEQQWIEFGGNAVKEGDVLRRSEEHSPPRGINDRHFRKRSHSKSPRRTRSRSPLGFYVHLKNLSLSIDERDLRNFFRGTDLTDEQIRFLYKDENRTRYAFVMFKTLKDYNTALSLHKTVLQYRPVHIDPISRKQMLKFIARYEKKRSGSLERDRPGHVSQKYSQEGNSGQKLCIYIRNFPFDVTKVEVQKFFADFLLAEDDIYLLYDDKGVGLGEALVKFKSEEQAMKAERLNRRRFLGTEVLLRLISEAQIQEFGVNFSVMSSEKMQARSQSRERGDHSHLFDSKDPPIYSVGAFENFRHQLEDLRQLDNFKHPQRDFRQPDRHPPEDFRHSSEDFRFPPEDFRHSPEDFRRPREEDFRRPSEEDFRRPWEEDFRRPPEDDFRHPREEDWRRPLEEDWRRPLEEDFRRSPTEDFRQLPEEDFRQPPEEDLRWLPEEDFRRPPEEDWRRPPEEDFRRPLQGEWRRPPEDDFRRPPEEDFRHSPEEDFRQSPQEHFRRPPQEHFRRPPPEHFRRPPPEHFRRPPPEHFRRPPPEHFRRPPPEHFRRPPPEHFRRPPQEHFRRPPQEHFRRSREEDFRHPPDEDFRGPPDEDFRHPPDEDFRSPQEEDFRCPSDEDFRQLPEEDLREAPEEDPRLPDNFRPPGEDFRSPPDDFRSHRPFVNFGRPEGGKFDFGKHNMGSFPEGRFMPDPKINCGSGRVTPIKIMNLPFKANVNEILDFFHGYRIIPDSVSIQYNEQGLPTGEAIVAMINYNEAMAAIKDLNDRPVGPRKVKLTLL

Test system: BAF complex subunits and histone proteins
Assay: Mass spectrometry proteomics of purified HA-SS18 WT and HA-SS18-SSX1 complexes (Tables 5A-5E)
Parameters: species or system human
[1] = HA-SS18SSX1_CHR_peptides: protein identified in the HA-SS18-SSX1 purification from solubilized chromatin (CHR), HEK-293T
[2] = HA-SS18SSX1 purification, NE (soluble nuclear extract) fraction, HEK-293T, peptides per identified protein
[3] = HA-SS18WT_CHR_peptides: HA-SS18 WT purification from nuclease-treated solubilized chromatin (CHR), HEK-293T, label = protein identified
[4] = HA-SS18WT_NE_peptides: HA-SS18 WT complexes purified from nuclear extract (NE), HEK-293T, label = protein identified (Gene Symbol)
[5] = HA-SS18SSX1_NE_peptides: protein co-purified with HA-SS18-SSX1 BAF complexes from soluble nuclear extract (NE), HEK-293T cells
[6] = HA-SS18WT_CHR_peptides: protein identified in HA-SS18 WT BAF complex purification from nuclease-treated solubilized chromatin (CHR), HEK-293T
[7] = HA-SS18WT_NE_peptides: proteins co-purified with HA-SS18 WT from nuclear extract (NE), HEK-293T

Molecule	Total (total peptides) [1]	Unique (unique peptides) [1]	Total (total peptides) [2]	Unique (unique peptides) [2]	Total (peptides) [3]	Unique (peptides) [3]	Total (peptides) [4]	Unique (peptides) [4]	Total (peptides) [5]	Unique (peptides) [5]	Total (total peptides) [6]	Unique (unique peptides) [6]	Total (peptides) [7]	Unique (peptides) [7]
B1	20	13	13	9	16	10	12	11						
B2	20	12			8	7								
B3	20	3							2	1	2	1	2	1
B4	19	17	10	10	14	11	15	15						
B5	19	15			12	10			2	2				
B6	18	15			9	9								
